{"source": "patent US11001808B2", "about": "“Immortalization of epithelial cells and methods of use” (Georgetown University, priority 2010, dated 2021)", "key": {"[1]": {"system": "cervical cancer cells that express the high-risk HPVs", "conditions": "previous studies; cited from earlier work"}, "[2]": {"system": "HPV-11-containing tumor cells from the patient", "assay": "Cell viability curves (CellTiter-Glo Luminescent Cell Viability Assay), patient's cultured tumor cells", "format": "cell-based", "conditions": "Homo sapiens, tumor cells treated 24 hours", "description": "Normal and tumor cells were treated with Cidofovir, Vorinostat or DHA at indicated concentration for 24 hours. Cell viabilities were measured using CellTiter-Glo® Luminescent Cell Viability Assay (Promega)\nThere is no data in the literature, however, analyzing the effect of these inhibitors on cells containing low-risk HPVs, because there are no cell lines established that contain HPV-6 or HPV-11. […] More importantly, this cell line was used to evaluate the sensitivity to the above inhibitors and to compare it to the sensitivity of normal lung cells isolated from the same patient (FIG. 17).\nCidovovir is the most common drug used for treating RRP."}}, "note": "pEC50: −log10 of the molar value."}
{"molecule": "O=C(CCCCCCC(=O)Nc1ccccc1)NO", "note": "[SAHA]", "values": [{"measurement": "killing of cervical cancer cells", "setting": "[1]", "value": "able to efficiently kill"}, {"measurement": "pEC50", "setting": "[2]", "value": 5.70}]}
